Results from US20150056222A1.
No constants are given. Whether binding was seen depends on the method and setting. Some results given as binding are weak or reduced against the parent protein; the word gives no strength.

Biological target: monkey (macaca fascicularis) PRLR on HEK293 cells (macaca fascicularis)
Test: FACS; footnote: specific binding on HEK293/hPRLR, HEK293/mfPRLR and T47D

Binder	binding
H1H6800P (antibody, human IgG1, V domains shown) VH: EVQLVESGGGLVQPGRSLRLSCAASGFTFDGYAMHWVRQGPGKGLEWVSGISWYSDTLGYADSVKGRFTISRDNAKNSLYLQMNSLRTEDTAFYYCAKISSSGWAFDYWGQGTLVTVSS VL: EIVLTQSPGTLSLSPGERATLSCRASHSVSSAYLAWYQQKPGQTPRLLIYGTSSRATGIPDRFSGSGSGTDFTLTISRLEPEDFAVYYCQQYGSSPLFTFGPGTKVDIK	binds
H1H6803P (antibody, human IgG1, V domains shown) VH: EVQLVESGGGVVRPGGSLRLSCAASGFKFDDYGMTWVRHVPGKGLEWVSGINWNGGRTGYTDSVKGRFTISRDNAKNSLYLQMNSLRAEDTALYHCAGARRDAFDIWGQGTMVTVSS VL: DIQMTQSPSSLSASIGDRVTITCRASQNIIKYLNWYQQNAGKAPKLLIYTASSLQSGVPSRFSGSGSGTDFTLTISSLQPEDFATYYCQQSSSSPYTFGQGTKLEIK	binds
H1H6781P (antibody, human IgG1, V domains shown) VH: EVQLVESGGDLVQPGESLRLSCTASGFTFNSYEMNWVRQAPGKGLEWVSYISSSGGTKYYVDSVKGRFTISRDNAKKSLYLQMNSLRADDTALYYCARLNGVDVFDIWGQGTMVTVSS VL: DIQMTQSPSSLSASVGDRVTITCRASQDIFNYLAWFQQKPGKVPELLISAASTLQSGVPSRFSGSGSGTYFTLTISSLQPEDIATYYCQRYNSAPLTFGGGTKVEIK	binds
H1H6785P (antibody, human IgG1, V domains shown) VH: EVQLVESGGGLVQPGGSLRLSCAASGFTFSSYEMNWVRQAPGKGLEWISYISSRGGTIYYADSIKGRFTIYRDNARNSLYLQMNSLRAEDTAIYYCARLSGVDIFDIWGQGTMVTVSS VL: DIQMTQSPSSLSASVGDRVTITCRASQGISNYLAWYQQKPGKVPKLLIYFASTLQSGVPSRFSGGGSGTDFTLTISSLQPEDVATYYCQRYNSAPLTFGGGTKVEIK	binds
H1H6953N (antibody, human IgG1, V domains shown) VH: EVQLLESGGGLVQPGGTLRLSCAASGFTFSAYAMSWVRQAPGKGLEWVSSINVRAGDTYYADSVKGRFTISRDNSKNTLFLLMNSLRAEDTAAYYCAKARYSSNWGFDFWGQGTLVTVSS VL: DIVMTQSPDSLTVSLGARTTINCQSSQTILHSSNNHNYLAWYQQKPGLPPKLLIYWSSTRESGVPDRFSGSGSGTDFTLTISSLQAEDVAIYYCQQYSNTPYTFGQGTKLEIN	binds
H1H6762P (antibody, human IgG1, V domains shown) VH: QVQLVESGGGVVQPGRSLRLSCAASGFTFSHYGMVWVRQPPGKGLEWVALISFDGTTKYYADSVKGRFTISRDNSKNTLYLQMNSLRAEDTAVYFCVGAIAAAAFDLWGRGTLVTVSS VL: EIVMTQSPATLSVSPGERATLSCRASQSVSSDLAWYQQKPGQAPRLLIYSASARATGIPARFTGSGSGTDFTLTISSLQSEDFAVYYCQQYNNWPMYTFGQGTKLEIK	binds
H1H6792P (antibody, human IgG1, V domains shown) VH: EVQLVESGGGLVQPGRSLRLSCAASGFTLDDHAVHWVRQAPGKGLEWVSGISWNSVYIDYADSVKGRFTIFRDNAKNSLYLQMNSLRAEDTAFYYCARDIEGARDYWGQGTLVTVSS VL: DIQMTQSPSSLSASVGDRVTITCRASQGIRNDLGWYQQKPGKAPKRLIYAASSLQSGVPSRFSGSGYGTEFTLTISSLQPEDFAPYYCLQHNSYPLTFGGGTKVEIK	binds
H1H6765P (antibody, human IgG1, V domains shown) VH: EVQLVESGGGVVRPGGSLRLSCVGSGFSFDDHGMNWVRQGPGKGLEWVSGFNWNGGSTNYAESVKGRFTISRDNARNSLFLQMNSLRAEDTALYYCVRGRSGWFNDAFDVWGPGTMVTVSS VL: EIVLTQSPGTLSLSPGERATLSCRASQTINSNYLAWYRQKPGQTPRLLIYGTSSRATGIPDRFSGSGSGTDFSLTISRLEPEDFAVFYCQQYAGLPTFGPGTKVDIK	binds
H1H6790P (antibody, human IgG1, V domains shown) VH: EVQLVESGGGLVQPGGSLRLSCAASGFTFSSYAMTWVRQAPGKGLEWVSAITGSVGNTYYADSVKGRFTISRDNSKNTLYLQMNSLGAEDTAEYYCAKGAGMTTNWYLDLWGRGTLVTVSS VL: DIVMTQSPDSLAVSLGARATINCKSSQSVLYSSNNQNYLTWYQQKPGQPPKLLIKWASTRESGVPDRFSGSGSGTDFTLTISSLQAEDVAVYYCQQYASSPYTFGQGTKLEIK	binds

Second part, the binder after the results:

binding	Binder
binds	H1H6975N (antibody, human IgG1, V domains shown) VH: EVHLVESGGGLVQPGGSLRLSCAASGFTFSSYEMNWVRQTPGKGLEWISHISSRSVIIYYADSVKGRFTISRDNAKNSLFLQMNSLRAEDTAVYFCAGITIFGIPEYWGQGTLVTVSS VL: EIVLTQSPATLSLSPGERATLSCRASQSVSSYFAWYQQKPGQAPRLLIYDASSRATGIPTRFSGSGSGTDFTLTISSLEPEDFAVYYCQQRSSWPITFGQGTRLEIK
binds	H1H6960N (antibody, human IgG1, V domains shown) VH: EVQLVESGGGLVKPGGSLRLSCAASGITFSSYSMNWVRQAPGKGLEWVSSISTRSSLIHYADSVKGRFTISRDNAKNSLYLQMNSLRDEDTAVYYCARWDAAAAFDYWGQGTLVIVSS VL: DIQLTQSPSFLSASVGDRVTITCWASQGISSYLAWYQQKPGKAPKLLIYVASTLQSGVPSRFSGSGSGTEFTLTISSLQPEDFATYFCQQLNSYPLTFGGGTKVEIK
binds	H1H6966N (antibody, human IgG1, V domains shown) VH: QVQLVQSGAEVQKPGASVKVSCKVSGYTLTALSIHWVRQAPGKGLEWMGNFDPGDGETIHAQKFQGRVTMTGDTSTDTAYMELSSLRSEDTAVYYCVGVTFDYWGQGTLVTVSS VL: EIVMTQSPATLSVSPGERATLSCRASQSVASNLAWYQQKPGQAPRLLLYGASTRATGIPARFSGSGSGTEFTLTISSLQSEDFALYYCQHYNNWPLTFGGGTKVEIK
binds	H1H6967N (antibody, human IgG1, V domains shown) VH: EVQLVESGGDLVHPGRSLRLSCAASGFPFDEYAMHWVRQVPGKGLEWVSGISWSNNNIGYADSVKGRFTISRDNAKNSLYLQMNSLRPEDTAFYYCAKSGIFDSWGQGTLVTVSS VL: EIVMTQSPATLSVSPGERATLSCRASQSVSRDLAWYQQKPGQAPRLLIHGASTRATGIPARFSGSGSGAEFTLIISSLQSEDFAVYYCQQYNNWPLTFGGGTKVEIK
binds	H1H6958N2 (antibody, human IgG1, V domains shown) VH: QVQLVESGGGVVQPGRSLRLSCGASGFTFRNYGMQWVRQGPGKGLEWVTLISFDGNDKYYADSVKGRFTISRDNSKNTLFLQMNSLRTEDTAVYYCARGGDFDYWGQGTLVTVSS VL: DIQMTQSPSSLSASVGDRVTITCRASQDIRKDLGWYQQKPGKAPKRLIYAASSLHSGVPSRFSGSGSGTEFTLTISSLQPEDFATYYCLQHNSYPMYTFGQGTKLEIK
